Earlier results on 1 compound are cited in US9155814B2, “Nanostructured material formulated with bone cement for effective antibiotic delivery” (priority 2009, dated 2015).

The solubility is how much of the substance goes into solution per volume.

Each structure is given as a SMILES string. ≈ marks a conversion by molar mass, not a printed value.

For the data set the following is noted: in H2O at 20° C.; cited from earlier work.

On to `COc1ccc2c(c1)c(CC(=O)O)c(C)n2C(=O)c1ccc(Cl)cc1` [indomethacin], for which the solubility is 4 µg/mL (≈ 11.2 µM).
